These are yes or no findings as the source states them, for the method shown. In cells and extracts the contact can be indirect. Some binding calls cover weakened binding; strength is not graded here.
Biological target: Ras homolog enriched in brain (Rheb) (human (endogenous in HeLa)) (UniProt Q15382)
Assay: co-IP; endogenous Rheb immunoprecipitated from HeLa lysate (750-1000 ug protein, 2 ug Rheb-specific antibody, overnight at 4 °C, magnetic protein G beads) and probed for SIRT2 by western blot; lysis buffer 20 mM Tris-HCl pH 7.5, 150 mM NaCl, 1 mM EDTA, 1 mM EGTA, 1% Triton X100; basal conditions

binding: binds
B1: SIRT2 (protein, UniProt Q8IXJ6 1-389)
chain: MAEPDPSHPLETQAGKVQEAQDSDSDSEGGAAGGEADMDFLRNLFSQTLSLGSQKERLLDELTLEGVARYMQSERCRRVICLVGAGISTSAGIPDFRSPSTGLYDNLEKYHLPYPEAIFEISYFKKHPEPFFALAKELYPGQFKPTICHYFMRLLKDKGLLLRCYTQNIDTLERIAGLEQEDLVEAHGTFYTSHCVSASCRHEYPLSWMKEKIFSEVTPKCEDCQSLVKPDIVFFGESLPARFFSCMQSDFLKVDLLLVMGTSLQVQPFASLISKAPLSTPRLLINKEKAGQSDPFLGMIMGLGGGMDFDSKKAYRDVAWLGECDQGCLALAELLGWKKELEDLVRREHASIDAQSGAGVPNPSTSASPKKSPPPAKDEARTTEREKPQ

Reference: publication PMC13261059
